In US20040228866A1, “Suppressor genes” (Ludwig Institute for Cancer Research, priority 2000, published 2004):
These are yes or no findings as the source states them, for the method shown. For part of these data: Binding seen in cells or lysates may run through a third protein. Some binding calls cover weakened binding; strength is not graded here. For part of these data: Sequences can lack the tags named with a protein.

T1: p63γ (UniProt Q9H3D4)
T1 sequence (looked up): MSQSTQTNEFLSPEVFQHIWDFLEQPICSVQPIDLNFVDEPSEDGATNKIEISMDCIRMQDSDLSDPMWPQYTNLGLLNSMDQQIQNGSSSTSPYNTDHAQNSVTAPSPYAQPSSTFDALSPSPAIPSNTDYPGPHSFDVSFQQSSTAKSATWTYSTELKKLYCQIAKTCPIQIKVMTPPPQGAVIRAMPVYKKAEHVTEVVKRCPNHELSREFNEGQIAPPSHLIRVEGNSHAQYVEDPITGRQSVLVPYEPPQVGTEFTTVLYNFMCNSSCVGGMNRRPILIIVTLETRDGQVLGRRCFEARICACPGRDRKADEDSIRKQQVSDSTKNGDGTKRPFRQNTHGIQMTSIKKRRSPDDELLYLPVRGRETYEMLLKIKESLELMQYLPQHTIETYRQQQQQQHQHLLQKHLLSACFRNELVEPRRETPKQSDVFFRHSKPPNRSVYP


Columns and labels:
p63γ [1] = target: T1, p63γ; test: in vitro co-immunoprecipitation (FIGS. 12B and 12C)
p63γ [2] = target: T1, p63γ; test: in vitro translated proteins, anti-V5 immunoprecipitation, autoradiography of the 35S-labelled partner
p63γ [3] = target: T1, p63γ; test: co-immunoprecipitation from transfected H1299 and Saos-2 cells (1 mg lysate), western blot
p63γ [4] = target: T1, p63γ; test: co-immunoprecipitation from transfected cells (FIGS. 13A-D)
p63γ [5] = target: T1, p63γ; test: co-immunoprecipitation from transfected H1299 and Saos-2 cells, western blot; endogenous p63γ with transfected ASPP2 also detected
p63γ [6] = target: T1, p63γ; test: co-immunoprecipitation from 2 mg cell lysate (FIGS. 13E-F)

Row | Binder | binding (p63γ [1]) | binding (p63γ [2]) | binding (p63γ [3]) | binding (p63γ [4]) | binding (p63γ [5]) | binding (p63γ [6])
1 | V5-tagged ASPP1 (in vitro translated) (protein, not shown: small tags and cut ends) MMPMILTVFLSNNEQILTEVPITPETTCRDVVEFCKEPGEGSCHLAEVWRGNERPIPFDHMMYEHLQIWGPRREEVKFFLRHEDSPTENSEQGGRQTQEQRTQRNVINVPGDKRTEYGVGNPRVELTLSELQDMAARQQQQIENQQQMLVAKEQRLHFLKQQERRQQQSISENEKLQKLKERVEAQENKLKKIRAMRGQVDYSKIMNGNLSAEIERFSAMFQEKKQEVQTAILRVDQLSQQLEDLKKGKLNGFQSYNGKLTGPAAVELKRLYQELQIRNQLNQEQNSKLQQQKELLNKRNMEVAMMDKRISELRERLYGKKIQLNRVNGTSSPQSPLSTSGRVAAVGPYIQVPSAGSFPVLGDPIKPQSLSIASNAAHGRSKSANDGNWPTLKQNSSSSVKPVQVAGADWKDPSVEGSVKQGTVSSQPVPFSALGPTEKPGIEIGKVPPPIPGVGKQLPPSYGTYPSPTPLGPGSTSSLERRKEGSLPRPSAGLPSRQRPTLLPATGSTPQPGSSQQIQQRISVPPSPTYPPAGPPAFPAGDSKPELPLTVAIRPFLADKGSRPQSPRKGPQTVNSSSIYSMYLQQATPPKNYQPAAHSALNKSVKAVYGKPVLPSGSTSPSPLPFLHGSLSTGTPQPQPPSESTEKEPEQDGPAAPADGSTVESLPRPLSPTKLTPIVHSPLRYQSDADLEALRRKLANAPRPLKKRSSITEPEGPGGPNIQKLLYQRFNTLAGGMEGTPFYQPSPSQDFMGTLADVDNGNTNANGNLEELPPAQPTAPLPAEPAPSSDANDNELPSPEPEELICPQTTHQTAEPAEDNNNNVATVPTTEQIPSPVAEAPSPGEEQVPPAPLPPASHPPATSTNKRTNLKKPNSERTGHGLRVRFNPLALLLDASLEGEFDLVQRIIYEVEDPSKPNDEGITPLHNAVCAGHHHIVKFLLDFGVNVNAADSDGWTPLHCAASCNSVHLCKQLVESGAAIFASTISDIETAADKCEEMEEGYIQCSQFLYGVQEKLGVMNKGVAYALWDYEAQNSDELSFHEGDALTILRRKDESETEWWWARLGDREGYVPKNLLGLYPRIKPRQRTLA | binds | binds | – | – | – | –
2 | V5-tagged ASPP2 (in vitro translated) (protein, not shown: small tags and cut ends) MMPMFLTVYLSNNEQHFTEVPVTPETICRDVVDLCKEPGESDCHLAEVWCGSERPVADNERMFDVLQRFGSQRNEVRFFLRHERPPGRDIVSGPRSQDPSLKRNGVKVPGEYRRKENGVNSPRMDLTLAELQEMASRQQQQIEAQQQLLATKEQRLKFLKQQDQRQQQQVAEQEKLKRLKEIAENQEAKLKKVRALKGHVEQKRLSNGKLVEEIEQMNNLFQQKQRELVLAVSKVEELTRQLEMLKNGRIDSHHDNQSAVAELDRLYKELQLRNKLNQEQNAKLQQQRECLNKRNSEVAVMDKRVNELRDRLWKKKAALQQKENLPVSSDGNLPQQAASAPSRVAAVGPYIQSSTMPRMPSRPELLVKPALPDGSLVIQASEGPMKIQTLPNMRSGAASQTKGSKIHPVGPDWSPSNADLFPSQGSASVPQSTGNALDQVDDGEVPLREKEKKVRPFSMFDAVDQSNAPPSFGTLRKNQSSEDILRDAQVANKNVAKVPPPVPTKPKQINLPYFGQTNQPPSDIKPDGSSQQLSTVVPSMGTKPKPAGQQPRVLLSPSIPSVGQDQTLSPGSKQESPPAAAVRPFTPQPSKDTLLPPFRKPQTVAASSIYSMYTQQQAPGKNFQQAVQSALTKTHTRGPHFSSVYGKPVIAAAQNQQQHPENIYSNSQGKPGSPEPETEPVSSVQENHENERIPRPLSPTKLLPFLSNPYRNQSDADLEALRKKLSNAPRPLKKRSSITEPEGPNGPNIQKLLYQRTTIAAMETISVPSYPSKSASVTASSESPVEIQNPYLHVEPEKEVVSLVPESLSPEDVGNASTENSDMPAPSPGLDYEPEGVPDNSPNLQNNPEEPNPEAPHVLDVYLEEYPPYPPPPYPSGEPEGPGEDSVSMRPPEITGQVSLPPGKRTNLRKTGSERIAHGMRVKFNPLALLLDSSLEGEFDLVQRIIYEVDDPSLPNDEGITALHNAVCAGHTEIVKFLVQFGVNVNAADSDGWTPLHCAASCNNVQVCKFLVESGAAVFAMTYSDMQTAADKCEEMEEGYTQCSQFLYGVQEKMGIMNKGVIYALWDYEPQNDDELPMKEGDCMTIIHREDEDEIEWWWARLNDKEGYVPRNLLGLYPRIKPRQRSLA | binds | binds | – | – | – | –
3 | Apoptosis Stimulating Protein 1 (ASPP1) (protein) MMPMILTVFLSNNEQILTEVPITPETTCRDVVEFCKEPGEGSCHLAEVWRGNERPIPFDHMMYEHLQIWGPRREEVKFFLRHEDSPTENSEQGGRQTQEQRTQRNVINVPGDKRTEYGVGNPRVELTLSELQDMAARQQQQIENQQQMLVAKEQRLHFLKQQERRQQQSISENEKLQKLKERVEAQENKLKKIRAMRGQVDYSKIMNGNLSAEIERFSAMFQEKKQEVQTAILRVDQLSQQLEDLKKGKLNGFQSYNGKLTGPAAVELKRLYQELQIRNQLNQEQNSKLQQQKELLNKRNMEVAMMDKRISELRERLYGKKIQLNRVNGTSSPQSPLSTSGRVAAVGPYIQVPSAGSFPVLGDPIKPQSLSIASNAAHGRSKSANDGNWPTLKQNSSSSVKPVQVAGADWKDPSVEGSVKQGTVSSQPVPFSALGPTEKPGIEIGKVPPPIPGVGKQLPPSYGTYPSPTPLGPGSTSSLERRKEGSLPRPSAGLPSRQRPTLLPATGSTPQPGSSQQIQQRISVPPSPTYPPAGPPAFPAGDSKPELPLTVAIRPFLADKGSRPQSPRKGPQTVNSSSIYSMYLQQATPPKNYQPAAHSALNKSVKAVYGKPVLPSGSTSPSPLPFLHGSLSTGTPQPQPPSESTEKEPEQDGPAAPADGSTVESLPRPLSPTKLTPIVHSPLRYQSDADLEALRRKLANAPRPLKKRSSITEPEGPGGPNIQKLLYQRFNTLAGGMEGTPFYQPSPSQDFMGTLADVDNGNTNANGNLEELPPAQPTAPLPAEPAPSSDANDNELPSPEPEELICPQTTHQTAEPAEDNNNNVATVPTTEQIPSPVAEAPSPGEEQVPPAPLPPASHPPATSTNKRTNLKKPNSERTGHGLRVRFNPLALLLDASLEGEFDLVQRIIYEVEDPSKPNDEGITPLHNAVCAGHHHIVKFLLDFGVNVNAADSDGWTPLHCAASCNSVHLCKQLVESGAAIFASTISDIETAADKCEEMEEGYIQCSQFLYGVQEKLGVMNKGVAYALWDYEAQNSDELSFHEGDALTILRRKDESETEWWWARLGDREGYVPKNLLGLYPRIKPRQRTLA | – | – | binds | binds | – | –
4 | ASPP2 (1-1128) (protein) MMPMFLTVYLSNNEQHFTEVPVTPETICRDVVDLCKEPGESDCHLAEVWCGSERPVADNERMFDVLQRFGSQRNEVRFFLRHERPPGRDIVSGPRSQDPSLKRNGVKVPGEYRRKENGVNSPRMDLTLAELQEMASRQQQQIEAQQQLLATKEQRLKFLKQQDQRQQQQVAEQEKLKRLKEIAENQEAKLKKVRALKGHVEQKRLSNGKLVEEIEQMNNLFQQKQRELVLAVSKVEELTRQLEMLKNGRIDSHHDNQSAVAELDRLYKELQLRNKLNQEQNAKLQQQRECLNKRNSEVAVMDKRVNELRDRLWKKKAALQQKENLPVSSDGNLPQQAASAPSRVAAVGPYIQSSTMPRMPSRPELLVKPALPDGSLVIQASEGPMKIQTLPNMRSGAASQTKGSKIHPVGPDWSPSNADLFPSQGSASVPQSTGNALDQVDDGEVPLREKEKKVRPFSMFDAVDQSNAPPSFGTLRKNQSSEDILRDAQVANKNVAKVPPPVPTKPKQINLPYFGQTNQPPSDIKPDGSSQQLSTVVPSMGTKPKPAGQQPRVLLSPSIPSVGQDQTLSPGSKQESPPAAAVRPFTPQPSKDTLLPPFRKPQTVAASSIYSMYTQQQAPGKNFQQAVQSALTKTHTRGPHFSSVYGKPVIAAAQNQQQHPENIYSNSQGKPGSPEPETEPVSSVQENHENERIPRPLSPTKLLPFLSNPYRNQSDADLEALRKKLSNAPRPLKKRSSITEPEGPNGPNIQKLLYQRTTIAAMETISVPSYPSKSASVTASSESPVEIQNPYLHVEPEKEVVSLVPESLSPEDVGNASTENSDMPAPSPGLDYEPEGVPDNSPNLQNNPEEPNPEAPHVLDVYLEEYPPYPPPPYPSGEPEGPGEDSVSMRPPEITGQVSLPPGKRTNLRKTGSERIAHGMRVKFNPLALLLDSSLEGEFDLVQRIIYEVDDPSLPNDEGITALHNAVCAGHTEIVKFLVQFGVNVNAADSDGWTPLHCAASCNNVQVCKFLVESGAAVFAMTYSDMQTAADKCEEMEEGYTQCSQFLYGVQEKMGIMNKGVIYALWDYEPQNDDELPMKEGDCMTIIHREDEDEIEWWWARLNDKEGYVPRNLLGLYPRIKPRQRSLA | – | – | – | binds | binds | binds
